Assay results as given in US20220242962A1.
No constants are given. Whether binding was seen depends on the method and setting. Some binding calls cover weakened binding; strength is not graded here.

How the values were obtained:
[1] = target: Cyno RI (cynomolgus monkey) (UniProt Q8SPW5); assay: SPR, Fc captured, receptor as analyte, relative to wild type Fc
[2] = target: Cyno RI (cynomolgus monkey) (UniProt Q8SPW5); assay: SPR, Fc captured, receptor as analyte

Row | Substance | binding [1] | binding [2]
1 | TSC 1004 (from UniProt P0DOX5 218-448) | binds | 
2 | Wild type IgG1 Fc (from UniProt P01857 99-329) |  | binds
3 | TSC 1006 (from UniProt P0DOX5 218-448) | binds | 
